Values from PubChem BioAssay AID1259308 (NCATS, 2017)
Assay: 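Candidate targets for better recombinant protein yield in mammalian cells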 (primary screen). System: human HEK293 embryonic kidney cells stably expressing firefly luciferase (HEK-CMV-Luc2-Hygro). Knock-down reagent: single siRNA against human genes, 0.8 pmol siRNA per well. Timing: 72 h. Measurement: 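Luciferase light (ONE-Glo) measured on one replicate plate set and viability (CellTiter-Glo) on the other, scaled to a negative control siRNA, with robust z-scores and luciferase per cell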. Direction: total luciferase, z-score and total luciferase, % of control: higher = more reporter protein produced; luciferase per cell, z-score: higher = more reporter output per viable cell; viable cells, % of control: higher = more viable cells. Call rule: 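An siRNA counts as active if its total luciferase robust z-score exceeds 3; genes with two or more such siRNAs out of three were retested with fresh siRNAs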. Meaning of the calls: active = raised luciferase; inactive = no rise.
This is a random part of about 59,000 reagents tested. About 1,510 of them (2.6%) were called active. 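Calls use total luciferase alone and ignore viability, so some active siRNAs may act by altering cell number.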 Unmarked entries are inactive. Reagents against one gene are numbered here.

Gene | reagent | total luciferase, z-score | total luciferase, % of control | luciferase per cell, z-score | viable cells, % of control
OR1J2 | 1 | -0.00382 | 81.8 | -0.423 | 102
OR1J2 | 2 | 0.786 | 97.5 | 0.392 | 98.3
OR1J2 | 3 | -0.399 | 74 | -1.24 | 115
LINC02897 | 1 | 0.0852 | 83.6 | 0.0751 | 91.6
LINC02897 | 2 | 1.03 | 102 | 0.821 | 92.1
LINC02897 | 3 | 2.68 | 135 | 1.77 | 94.7
NPTX2 | 1 | 0.427 | 90.4 | 1.93 | 60.7
NPTX2 | 2 | 1.22 | 106 | 1.03 | 90.5
NPTX2 | 3 | -0.15 | 78.9 | 0.0723 | 86.5
YWHAH | 1 | 0.829 | 98.4 | 0.638 | 92.9
YWHAH | 2 | -0.109 | 79.7 | 0.085 | 87.1
YWHAH | 3 | 0.555 | 92.9 | 0.875 | 82.5
ZSWIM5 | 1 | 3.04 (active) | 142 | 1.57 | 105
ZSWIM5 | 2 | 0.876 | 99.3 | 0.477 | 97.9
ZSWIM5 | 3 | 1.36 | 109 | 0.841 | 97.6

Laid out differently: 3 of the entries above.
NPTX2 #1: total luciferase, z-score = 0.427; total luciferase, % of control = 90.4; luciferase per cell, z-score = 1.93; viable cells, % of control = 60.7
NPTX2 #2: total luciferase, z-score = 1.22; total luciferase, % of control = 106; luciferase per cell, z-score = 1.03; viable cells, % of control = 90.5
NPTX2 #3: total luciferase, z-score = -0.15; total luciferase, % of control = 78.9; luciferase per cell, z-score = 0.0723; viable cells, % of control = 86.5

Further reagents follow.
Gene | reagent | total luciferase, z-score | total luciferase, % of control | luciferase per cell, z-score | viable cells, % of control
MTFR1 | 1 | -0.279 | 76.3 | -0.383 | 94.3
MTFR1 | 2 | -1.23 | 57.4 | -1.19 | 87.8
MTFR1 | 3 | -0.354 | 74.8 | -0.178 | 87.6
NDUFB4P12 | 1 | -0.723 | 67.5 | -0.343 | 82.6
NDUFB4P12 | 2 | -0.873 | 64.5 | -1.22 | 99.5
NDUFB4P12 | 3 | 1.46 | 111 | 1.27 | 88.6
GSX1 | 1 | 2.65 | 135 | 1.38 | 105
GSX1 | 2 | 0.399 | 89.8 | -0.0745 | 102
GSX1 | 3 | -1.65 | 49.1 | -1.14 | 74.1
TBC1D14 | 1 | -0.391 | 74.1 | 0.288 | 76.8
TBC1D14 | 2 | -1.25 | 57.1 | -0.984 | 82.7
TBC1D14 | 3 | 0.502 | 91.9 | 1.14 | 76.1
TMOD4 | 1 | -1.06 | 60.9 | -0.929 | 86.9
TMOD4 | 2 | -0.346 | 75 | -0.421 | 93.7
TMOD4 | 3 | 0.782 | 97.4 | 1.12 | 81
LENG1 | 1 | -0.546 | 71 | -0.529 | 91.2
LENG1 | 2 | 0.0233 | 82.4 | -0.153 | 95.8
LENG1 | 3 | 2.98 | 141 | 2.59 | 79.8
MAP3K3 | 1 | 1.39 | 109 | 1.48 | 82.8
MAP3K3 | 2 | 0.41 | 90 | -0.25 | 107
MAP3K3 | 3 | -1.43 | 53.4 | -2.15 | 105
ATRAID | 1 | -0.00738 | 81.7 | 0.283 | 84.8
ATRAID | 2 | 4.37 (active) | 169 | 3.49 | 75.2
ATRAID | 3 | -1.58 | 50.5 | -1.09 | 75.2
